Earlier results on ten compounds are cited in patent US20130347140A1, “High Rebaudioside-A Plant and Methods of Producing the Same and Uses Thereof” (priority 2010, published 2013).

Like-named read-outs stand apart in the source and are kept apart here.

For this data set the following is noted: sensory.

For the compound `C=C1C[C@@]23CC[C@H]4[C@@](C)(CCC[C@@]4(C)C(=O)O[C@@H]4O[C@H](CO)[C@@H](O)[C@H](O)[C@H]4O)[C@@H]2CC[C@]1(O[C@@H]1O[C@H](CO)[C@@H](O)[C@H](O)[C@H]1O[C@@H]1O[C@@H](C)[C@H](O)[C@@H](O)[C@H]1O)C3` [Dulcoside A], the Quality of taste result is on record as “Very bitter”.
With `C=C1C[C@@]23CC[C@H]4[C@@](C)(CCC[C@@]4(C)C(=O)O[C@@H]4O[C@H](CO)[C@@H](O)[C@H](O)[C@H]4O)[C@@H]2CC[C@]1(O[C@@H]1O[C@H](CO)[C@@H](O)[C@H](O[C@@H]2O[C@H](CO)[C@@H](O)[C@H](O)[C@H]2O)[C@H]1O[C@@H]1O[C@H](CO)[C@@H](O)[C@H](O)[C@H]1O)C3` [Rebaudioside A], the Quality of taste result (listed as RA) was “sweetness flavour comparable to sucrose”.
Regarding `C=C1C[C@@]23CC[C@H]4[C@@](C)(CCC[C@@]4(C)C(=O)O[C@@H]4O[C@H](CO)[C@@H](O)[C@H](O)[C@H]4O[C@@H]4O[C@H](CO)[C@@H](O)[C@H](O)[C@H]4O)[C@@H]2CC[C@]1(O[C@@H]1O[C@H](CO)[C@@H](O)[C@H](O[C@@H]2O[C@H](CO)[C@@H](O)[C@H](O)[C@H]2O)[C@H]1O[C@@H]1O[C@H](CO)[C@@H](O)[C@H](O)[C@H]1O)C3` [Rebaudioside D], the Quality of taste result was “Like sucrose”.
With `C=C1C[C@@]23CC[C@H]4[C@@](C)(CCC[C@@]4(C)C(=O)O[C@@H]4O[C@H](CO)[C@@H](O)[C@H](O)[C@H]4O[C@@H]4O[C@H](CO)[C@@H](O)[C@H](O)[C@H]4O)[C@@H]2CC[C@]1(O[C@@H]1O[C@H](CO)[C@@H](O)[C@H](O)[C@H]1O[C@@H]1O[C@H](CO)[C@@H](O)[C@H](O)[C@H]1O)C3` [Rebaudioside E], the Quality of taste entry was “Like sucrose”.
`C=C1C[C@@]23CC[C@H]4[C@@](C)(CCC[C@@]4(C)C(=O)O[C@@H]4O[C@H](CO)[C@@H](O)[C@H](O)[C@H]4O)[C@@H]2CC[C@]1(O[C@@H]1O[C@H](CO)[C@@H](O)[C@H](O)[C@H]1O)C3` [Rubusoside]: the Quality of taste result is given as “Very bitter”.
As for `C=C1C[C@@]23CC[C@H]4[C@@](C)(CCC[C@@]4(C)C(=O)O)[C@@H]2CC[C@]1(O)C3` [Steviol], the Quality of taste result is listed as “Very bitter”.
Consider `C=C1C[C@@]23CC[C@H]4[C@@](C)(CCC[C@@]4(C)C(=O)O)[C@@H]2CC[C@]1(O[C@@H]1O[C@H](CO)[C@@H](O)[C@H](O)[C@H]1O[C@@H]1O[C@H](CO)[C@@H](O)[C@H](O)[C@H]1O)C3` [Steviolbioside], for which the Quality of taste result is recorded as “Unpleasant”.
`C=C1C[C@@]23CC[C@H]4[C@@](C)(CCC[C@@]4(C)C(=O)O[C@@H]4O[C@H](CO)[C@@H](O)[C@H](O)[C@H]4O)[C@@H]2CC[C@]1(O[C@@H]1O[C@H](CO)[C@@H](O)[C@H](O)[C@H]1O[C@@H]1O[C@H](CO)[C@@H](O)[C@H](O)[C@H]1O)C3` [Stevioside]: the Quality of taste entry was “Bitter”.
Consider Rebaudioside B, for which the Quality of taste entry is “Bitter”.
Consider Rebaudioside C, for which the Quality of taste result is “Bitter”.
